According to paper PMC10127389:
No constants are given. Whether binding was seen depends on the method and setting. Binding seen in cells or lysates may run through a third protein. Binding can be weak; no strength is given. Tags and fused reporters may be left off the sequences shown.

B1: human MLF2 (human myeloid leukemia factor 2), HA-tagged, expressed from pPhMLF2 in G. lamblia (protein, UniProt Q15773 1-248)
chain: MFRFMRDVEPEDPMFLMDPFAIHRQHMSRMLSGGFGYSPFLSITDGNMPGTRPASRRMQQAGAVSPFGMLGMSGGFMDMFGMMNDMIGNMEHMTAGGNCQTFSSSTVISYSNTGDGAPKVYQETSEMRSAPGGIRETRRTVRDSDSGLEQMSIGHHIRDRAHILQRSRNHRTGDQEERQDYINLDESEAAAFDDEWRRETSRFRQQRPLEFRRLESSGAGGRRAEGPPRLAIQGPEDSPSRQSRRYDW

Tests used:
[1] = biological target: T1, human MLF2 (human myeloid leukemia factor 2), HA-tagged, expressed from pPhMLF2 in G. lamblia (human) (UniProt Q15773); test: co-IP; lysates of pPhMLF2 stable transfectants of G. lamblia in growth medium; precipitated with anti-HA antibody conjugated to beads; Western blot with anti-HA, anti-MLF and anti-RAN; 5'Δ5N-Pac cell line as control
T1 sequence: B1 chain

[2] = biological target: Giardia lamblia myeloid leukemia factor (MLF), endogenous (G. lamblia (endogenous in WB clone C6 trophozoites)) (UniProt E2RTV5); test: co-IP; reciprocal: lysates of pPhMLF2 stable transfectants incubated with 2 μg anti-MLF antibody for 2 h, then protein G plus/protein A-agarose for 1 h; preimmune serum as negative control; Western blot with anti-MLF and anti-HA

| Molecule | binding [1] | binding [2] |
| --- | --- | --- |
| Giardia lamblia myeloid leukemia factor (MLF), endogenous (from UniProt E2RTV5) | binds |  |
| B1 |  | binds |
